Reference: paper PMC11959706, “Allatostatin-C signaling in the crab Carcinus maenas is implicated in the ecdysis program” (The Journal of Experimental Biology, 2025)

Assay: Circulating hormone levels in hemolymph over ecdysis and post-molt
Format: in vivo, Carcinus maenas
Settings: endogenous peptide

pQIRYHQCYFNPISCF (disulfide) [AST-C, allatostatin-C, C. maenas AST-C family neuropeptide with C-terminal PISCF motif; synthetic (GenScript)]
Time after ecdysis at which hemolymph levels became almost undetectable (RIA): ≤ 24 h | Time after ecdysis at which hemolymph levels diminished to basal values (RIA): ≤ 2 h | Hemolymph level as % of the peak value at E100 (within 1 h of completion of ecdysis): around 20%
